Data: US9260425B2 (Genetech, Inc., priority 2011, dated 2016)
Structures were worked out from names or drawings and are uncertain.

Amino acid sequences for entries named in this document (tags omitted).
UniProt P11309, whole entry: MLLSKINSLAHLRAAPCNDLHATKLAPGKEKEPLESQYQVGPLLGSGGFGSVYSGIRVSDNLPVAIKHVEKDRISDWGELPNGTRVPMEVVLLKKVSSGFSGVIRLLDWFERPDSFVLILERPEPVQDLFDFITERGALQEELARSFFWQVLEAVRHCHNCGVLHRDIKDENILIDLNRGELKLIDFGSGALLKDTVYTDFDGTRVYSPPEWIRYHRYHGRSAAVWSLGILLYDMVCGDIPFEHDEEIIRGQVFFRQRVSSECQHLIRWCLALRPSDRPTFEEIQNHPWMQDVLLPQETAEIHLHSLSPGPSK

Molecular target: Pim-1 (Homo sapiens (Human), UniProt P11309)
Assay: Pim kinase binding activity assay (Example 901), PIM-1 enzyme, Caliper microfluidic peptide phosphorylation
Type: biochemical
Details: read-out: Pim-1 Ki; 20 pM PIM-1, 10 μM ATP, 1 μM FAM-peptide, 90 minutes at room temperature

SMILES: Cc1ccc(-c2n[nH]c3cnc(-c4cnn(C)c4)cc23)nc1N1CCC(N)CC1
- Ki: 0.051 nM
